Measurements reported in PubChem BioAssay AID1259266 (Sanger Institute, 2017).
Here is one part, drawn at random, of 794 reagents. Over the whole deposit, 16 (2%) were called active. 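Calls reflect knock-down alone, not drug synergy; viability seems capped at 1 and z-scores at 0.585.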 Further read-outs or replicates are left out here. Not given: the amount of reagent, the time to read-out.

Assay: 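Find knock-downs that kill LS123 cells or act with anchor drugs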 (primary screen)
Cells: LS123 human colorectal cancer cells
Knock-down reagent: siRNA pool against human genes
Challenge: anchor drugs BYL719 (1 µM), cetuximab (5 µg/ml) or trametinib (10 nM), each chosen to barely slow growth alone; DMSO vehicle as the drug-free arm
Read-out: 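Viability relative to non-targeting control pools, replicate mean, with a robust z-score for knock-down alone and synergy scores for each anchor drug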
Scale: robust z-score, knock-down alone: higher = more cells surviving after knock-down; viability, knock-down alone: higher = more viable cells
Units: viability, knock-down alone in fraction of control
Call rule: 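Essential when the robust z-score of the knock-down alone is below -3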
Calls: active = essential (knock-down alone cuts viability); inactive = no change

Knock-down of PRKCB (protein kinase C beta) resulted in: robust z-score, knock-down alone 0.585; viability, knock-down alone 1; inactive.
Against BRD3 (bromodomain containing 3), the values are robust z-score, knock-down alone 0.585; viability, knock-down alone 1; inactive.
Against LATS2 (large tumor suppressor kinase 2), the entry reads robust z-score, knock-down alone 0.585; viability, knock-down alone 1; inactive.
For DIS3 (DIS3 exosome endoribonuclease and 3'-5' exoribonuclease), the entry reads robust z-score, knock-down alone 0.257; viability, knock-down alone 0.981; inactive.
PDGFRB (platelet derived growth factor receptor beta) showed robust z-score, knock-down alone -2.54; viability, knock-down alone 0.815; inactive.
STK32A (serine/threonine kinase 32A) gave robust z-score, knock-down alone -0.0652; viability, knock-down alone 0.961; inactive.
CLSPN (claspin) gave robust z-score, knock-down alone 0.00826; viability, knock-down alone 0.966; inactive.
IDH2 (isocitrate dehydrogenase (NADP(+)) 2) showed robust z-score, knock-down alone 0.0637; viability, knock-down alone 0.969; inactive.
Against STK3 (serine/threonine kinase 3), the entry reads robust z-score, knock-down alone 0.585; viability, knock-down alone 1; inactive.
Against TYRO3 (TYRO3 protein tyrosine kinase), the values are robust z-score, knock-down alone 0.585; viability, knock-down alone 1; inactive.
With knock-down of MAPK8 (mitogen-activated protein kinase 8) the results were robust z-score, knock-down alone 0.585; viability, knock-down alone 1; inactive.
Against BUB1 (BUB1 mitotic checkpoint serine/threonine kinase), the values are robust z-score, knock-down alone -2.59; viability, knock-down alone 0.811; inactive.
Against MARK2 (microtubule affinity regulating kinase 2), the entry reads robust z-score, knock-down alone -1; viability, knock-down alone 0.906; inactive.
Against GOLGA5 (golgin A5), the values are robust z-score, knock-down alone 0.585; viability, knock-down alone 1; inactive.
After knock-down of PTK2 (protein tyrosine kinase 2), the screen gave robust z-score, knock-down alone -0.79; viability, knock-down alone 0.918; inactive.
Depletion of TPK1 (thiamin pyrophosphokinase 1) came out at: robust z-score, knock-down alone -0.817; viability, knock-down alone 0.917; inactive.
For TESK2 (testis associated actin remodelling kinase 2), the values are robust z-score, knock-down alone 0.585; viability, knock-down alone 1; inactive.
UCK2 (uridine-cytidine kinase 2) showed robust z-score, knock-down alone 0.585; viability, knock-down alone 1; inactive.
CDK7 (cyclin dependent kinase 7) showed robust z-score, knock-down alone 0.585; viability, knock-down alone 1; inactive.
Against POMK (protein O-mannose kinase) the deposit lists robust z-score, knock-down alone 0.585; viability, knock-down alone 1; inactive.
Against MASTL (microtubule associated serine/threonine kinase like) the deposit lists robust z-score, knock-down alone 0.585; viability, knock-down alone 1; inactive.
Knock-down of MAPK13 (mitogen-activated protein kinase 13) came out at: robust z-score, knock-down alone 0.585; viability, knock-down alone 1; inactive.
Against PFKFB2 (6-phosphofructo-2-kinase/fructose-2,6-biphosphatase 2), the entry reads robust z-score, knock-down alone -0.879; viability, knock-down alone 0.913; inactive.
Against NLK (nemo like kinase) the deposit lists robust z-score, knock-down alone 0.287; viability, knock-down alone 0.982; inactive.
CAMK1 (calcium/calmodulin dependent protein kinase I) scored robust z-score, knock-down alone 0.585; viability, knock-down alone 1; inactive.
For TRIB3 (tribbles pseudokinase 3), the values are robust z-score, knock-down alone 0.585; viability, knock-down alone 1; inactive.
Knock-down of TAF1 (TATA-box binding protein associated factor 1) resulted in: robust z-score, knock-down alone 0.585; viability, knock-down alone 1; inactive.
Depletion of RAD21 (RAD21 cohesin complex component) gave: robust z-score, knock-down alone -1.43; viability, knock-down alone 0.881; inactive.
